From PMC5392496
Results are given in words; binding and its absence hold for the method and conditions named. In cells and extracts the contact can be indirect. Some results given as binding are weak or reduced against the parent protein; the word gives no strength.

By UniProt entry, the sequences of proteins in these tests, tags left out.
UniProt P22700: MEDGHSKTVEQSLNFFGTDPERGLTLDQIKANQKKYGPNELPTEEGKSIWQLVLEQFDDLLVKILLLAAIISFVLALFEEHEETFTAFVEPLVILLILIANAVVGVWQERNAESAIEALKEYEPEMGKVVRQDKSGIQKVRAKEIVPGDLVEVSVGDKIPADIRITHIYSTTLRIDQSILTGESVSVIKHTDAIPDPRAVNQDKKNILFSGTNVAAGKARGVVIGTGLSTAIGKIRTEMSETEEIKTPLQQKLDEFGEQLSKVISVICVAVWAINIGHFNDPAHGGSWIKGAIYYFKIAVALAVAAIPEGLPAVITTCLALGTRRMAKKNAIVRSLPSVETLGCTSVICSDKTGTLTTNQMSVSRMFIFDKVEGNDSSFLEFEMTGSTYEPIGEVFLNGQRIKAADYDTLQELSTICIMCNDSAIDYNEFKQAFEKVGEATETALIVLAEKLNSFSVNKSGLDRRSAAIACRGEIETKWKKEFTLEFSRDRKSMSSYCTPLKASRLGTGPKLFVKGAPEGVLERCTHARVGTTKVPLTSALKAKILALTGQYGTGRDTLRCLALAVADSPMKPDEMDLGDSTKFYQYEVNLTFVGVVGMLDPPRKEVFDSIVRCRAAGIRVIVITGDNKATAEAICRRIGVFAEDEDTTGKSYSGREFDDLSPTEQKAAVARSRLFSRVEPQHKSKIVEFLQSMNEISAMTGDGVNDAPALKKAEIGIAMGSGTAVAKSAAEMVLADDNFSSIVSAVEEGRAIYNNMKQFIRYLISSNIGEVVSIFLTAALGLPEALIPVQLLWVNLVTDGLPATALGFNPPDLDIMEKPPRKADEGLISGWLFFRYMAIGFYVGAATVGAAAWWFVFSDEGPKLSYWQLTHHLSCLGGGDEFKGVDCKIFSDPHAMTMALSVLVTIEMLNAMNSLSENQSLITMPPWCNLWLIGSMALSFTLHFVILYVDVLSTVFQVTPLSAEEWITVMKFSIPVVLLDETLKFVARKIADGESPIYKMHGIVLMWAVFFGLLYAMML
UniProt Q9VWB9: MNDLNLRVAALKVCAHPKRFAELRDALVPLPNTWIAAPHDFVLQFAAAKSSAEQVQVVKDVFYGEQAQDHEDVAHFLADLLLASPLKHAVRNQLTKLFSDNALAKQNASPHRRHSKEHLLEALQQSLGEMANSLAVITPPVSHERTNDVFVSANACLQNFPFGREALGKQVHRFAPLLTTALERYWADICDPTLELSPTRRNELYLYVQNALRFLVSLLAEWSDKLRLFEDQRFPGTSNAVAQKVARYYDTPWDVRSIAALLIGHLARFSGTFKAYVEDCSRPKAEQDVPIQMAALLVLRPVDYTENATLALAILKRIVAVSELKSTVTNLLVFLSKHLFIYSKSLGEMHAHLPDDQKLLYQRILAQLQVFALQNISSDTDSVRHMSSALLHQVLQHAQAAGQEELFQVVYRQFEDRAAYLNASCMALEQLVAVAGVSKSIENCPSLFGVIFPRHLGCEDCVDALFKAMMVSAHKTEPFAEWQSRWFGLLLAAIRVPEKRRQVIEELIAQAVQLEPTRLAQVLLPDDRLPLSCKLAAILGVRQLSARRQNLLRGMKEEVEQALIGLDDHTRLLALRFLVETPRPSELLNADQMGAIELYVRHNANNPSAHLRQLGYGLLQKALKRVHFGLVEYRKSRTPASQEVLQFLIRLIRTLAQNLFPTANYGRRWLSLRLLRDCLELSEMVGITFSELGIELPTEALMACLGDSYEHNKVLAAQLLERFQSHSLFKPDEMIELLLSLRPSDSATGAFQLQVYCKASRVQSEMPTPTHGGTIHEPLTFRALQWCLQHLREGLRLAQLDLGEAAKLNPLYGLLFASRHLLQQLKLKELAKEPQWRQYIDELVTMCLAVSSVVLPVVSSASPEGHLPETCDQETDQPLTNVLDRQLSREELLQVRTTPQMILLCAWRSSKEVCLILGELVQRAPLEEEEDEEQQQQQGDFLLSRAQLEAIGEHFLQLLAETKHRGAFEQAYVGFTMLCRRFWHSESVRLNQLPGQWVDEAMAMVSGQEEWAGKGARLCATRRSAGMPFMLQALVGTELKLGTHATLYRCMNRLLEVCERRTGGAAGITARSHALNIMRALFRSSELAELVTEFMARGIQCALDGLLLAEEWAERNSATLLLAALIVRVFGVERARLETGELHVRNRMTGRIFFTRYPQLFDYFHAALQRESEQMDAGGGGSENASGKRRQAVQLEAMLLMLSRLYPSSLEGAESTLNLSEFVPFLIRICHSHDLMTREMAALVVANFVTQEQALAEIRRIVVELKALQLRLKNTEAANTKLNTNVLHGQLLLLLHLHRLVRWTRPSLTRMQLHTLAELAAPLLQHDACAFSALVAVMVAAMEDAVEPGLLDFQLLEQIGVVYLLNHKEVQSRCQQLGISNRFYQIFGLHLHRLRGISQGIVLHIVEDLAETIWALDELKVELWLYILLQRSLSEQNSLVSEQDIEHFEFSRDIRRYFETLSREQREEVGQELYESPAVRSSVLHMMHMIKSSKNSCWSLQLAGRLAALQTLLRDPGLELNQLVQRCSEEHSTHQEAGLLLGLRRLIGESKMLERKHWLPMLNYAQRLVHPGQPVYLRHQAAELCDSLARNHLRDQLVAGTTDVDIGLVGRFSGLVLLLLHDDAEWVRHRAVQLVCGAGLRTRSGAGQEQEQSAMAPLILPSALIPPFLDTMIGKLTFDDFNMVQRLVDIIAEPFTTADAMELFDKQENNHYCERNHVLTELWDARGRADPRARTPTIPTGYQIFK

Key:
[1] = target: FLAG-SERCA (Drosophila melanogaster) (UniProt P22700); assay: co-IP; FLAG-SERCA immunoprecipitates from transfected Kc167 cells, immunoblotted for endogenous THADA; IP lysis buffer 50 mM Tris pH 7.5, 1% Triton-X, 150 mM NaCl; 4°C; protein A beads
[2] = target: Drosophila THADA (CG15618) (Drosophila melanogaster (endogenous in flies and Kc167 cells)) (UniProt Q9VWB9); assay: co-IP; immunoprecipitation of endogenous THADA from lysates of transgenic adult flies expressing FLAG-SERCA; IP lysis buffer 50 mM Tris pH 7.5, 1% Triton-X, 150 mM NaCl; 4°C; protein A beads; Western blot
[3] = target: Drosophila THADA (CG15618) (Drosophila melanogaster (endogenous in flies and Kc167 cells)) (UniProt Q9VWB9); assay: co-IP; immunoprecipitation of endogenous THADA from Kc167 lysates, blotted for FLAG-SERCA; lysates from THADA knockdown cells as negative control; IP lysis buffer 50 mM Tris pH 7.5, 1% Triton-X, 150 mM NaCl; 4°C; protein A beads

binding [1]	binding [2]	binding [3]	Substance
binds			Drosophila THADA (CG15618) (from UniProt Q9VWB9 1-1746)
	binds	binds	FLAG-SERCA (from UniProt P22700 1-1020)
